Results: PubChem BioAssay AID493014 (National Center for Advancing Translational Sciences (NCATS), 2011)
The campaign covered roughly 340,000 compounds. About 170 (0.05%) were called active. The shares of active, inactive and inconclusive entries below differ from those in the screen. Calls come from the whole dose curve; as a rule, active = well fitted inhibition curve with a large enough effect in the signal ratio, with a control signal flat (not every such curve was filed as active); inconclusive = small, poorly fitted or top-dose-only effect, or effect the other way, or a change in a side signal; inactive = flat fitted curve, though single readings scatter; the % refers to the signal ratio. Potencies of inconclusive entries are doubtful fits and often do not repeat.

test: qHTS Assay to Find Inhibitors of Chronic Active B-Cell Receptor Signaling; conditions: ABC-DLBCL IkBa-CBG/CBR reporter, luminescence ratio (green luciferase fused to IkBa over red control in TMD8 lymphoma cells), 4 h; activity change, negative = inhibition: at 46.1 µM (top of the series);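 for activity change, negative = inhibition: plate controls were basal doxycycline-induced cells for no effect and cells given 10 µM MG132 for full effect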
Outline: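 TMD8 human ABC-DLBCL cells with doxycycline-inducible IκBα–green luciferase fusion and unfused red luciferase, in 0.5% FBS medium; compounds up to 46 uM, 4 h at 37C. Green/red luminescence ratio, filter-overlap corrected, fitted to concentration-response curves.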
Potency is the fitted concentration of half-maximal effect.

SMILES | activity change, negative = inhibition | Potency
COc1ccc(NC(=O)CSc2nc(N)c(-c3ccccc3)c(=O)[nH]2)cc1 | inconclusive: 0.212% | –
CCCCN1C(=O)C(NC(=O)C2CC2)(C(F)(F)F)C2=C1CC(C)(C)CC2=O (configuration not stated) | inconclusive: 4.41% | –
Cc1nnc(SCc2cccc(Oc3ccccc3)c2)n1N | inactive | –
Cc1ccc2nc(/C(C#N)=C/c3ccc(O)c(O)c3)[nH]c2c1 | inactive | –
O=C(NCCCn1ccnc1)/C(=C\c1cccs1)NC(=O)c1ccccc1 | inactive | –
CCc1nnc(NC(=O)c2cc(-c3ccccc3)nn2-c2ccccc2)s1 | inconclusive: -5.35% | –
CN1C(=O)C2(Nc3ccccc3-c3nc4ccccc4n32)c2ccccc21 (configuration not stated) | inconclusive: 1.94% | –
CCOC(=O)c1c(C)c2c(=O)[nH]cnc2n1-c1ccccc1 | inconclusive: 1.54% | –
CCNC(=O)c1sc(-c2ccccc2)nc1C | – | inconclusive: 1.58 µM [rising, partial curve, poor fit]
CCn1c(SCC(=O)N2CCCc3ccccc32)nc2ccccc2c1=O | inconclusive: 3.19% | –
Cc1nn(CC(=O)N2CCc3ccccc32)c(C)c1S(=O)(=O)NC(C)(C)C | inconclusive: 1.45% | –
COc1ccc(C)cc1S(=O)(=O)NCC(c1ccco1)N1CCc2ccccc2C1 (configuration not stated) | – | inconclusive: 20.6 µM [rising, partial curve, poor fit]
Cc1ccc(S(=O)(=O)N(C)c2ccc(C(=O)Nc3ccccn3)cc2)cc1 | inconclusive: 13.2% | –
Cc1c(Cl)cccc1NC(=O)C1NC(=O)CC1c1ccccc1 (configuration not stated) | – | inconclusive: 32.6 µM [falling, partial curve, poor fit]
CN(C)CC(O)COc1ccc(-c2ccc(C#N)cc2)cc1 (configuration not stated) | – | inconclusive: 32.6 µM [rising, partial curve, poor fit]
Cc1ccc(S(=O)(=O)NC(CC(C)C)C(=O)Oc2ccc3c4c(c(=O)oc3c2)CCC4)cc1 (configuration not stated) | – | inconclusive: 35.5 µM [falling, single point]
CCCCCCCCc1nnc(N)s1 | inactive | –
Cc1ccc(C)c(N2CCN(C(=O)c3ccc(CS(=O)Cc4ccc(Cl)cc4)o3)CC2)c1 (configuration not stated) | – | inconclusive: 12.6 µM [falling, single point]
COc1cc(C(=O)NC2CCN(Cc3ccccc3)CC2)cc(Cl)c1OC | inactive | –
Cc1ccc(NC(=O)COc2ccc(/C=C3/SC(=Nc4ccccc4)N(Cc4cccnc4)C3=O)cc2)cc1 | – | inconclusive: 18.4 µM [rising, partial curve, poor fit]
O=C(/C=C\c1ccc2c(c1)OCO2)NC1CC(=O)N(c2ccc(F)cc2)C1 (configuration not stated) | inconclusive: -28.2% | –

Fetched by compound from the list above:
SMILES | activity change, negative = inhibition | Potency
Cc1nnc(SCc2cccc(Oc3ccccc3)c2)n1N | inactive | –
COc1cc(C(=O)NC2CCN(Cc3ccccc3)CC2)cc(Cl)c1OC | inactive | –
CCNC(=O)c1sc(-c2ccccc2)nc1C | – | inconclusive: 1.58 µM [rising, partial curve, poor fit]
O=C(NCCCn1ccnc1)/C(=C\c1cccs1)NC(=O)c1ccccc1 | inactive | –
COc1ccc(NC(=O)CSc2nc(N)c(-c3ccccc3)c(=O)[nH]2)cc1 | inconclusive: 0.212% | –

(continued)

SMILES | activity change, negative = inhibition | Potency
COc1ccc(-c2csc(NC(=O)c3ccccc3Br)c2C(=O)O)cc1 | inactive | –
Cc1ccccc1C(=O)N1CCN(c2ccc(NC(=O)c3cccnc3Cl)cc2)CC1 | inactive | –
COCCSc1ccccc1C(=O)Nc1ccccc1C(C)C | inconclusive: -1.08% | –
O=C(NCc1ccccn1)c1ccc(N2CCCC2=O)cc1 | inactive | –
COCCC(=O)N1CCC(Oc2ccc(C(=O)NCCCC3CCCC3)cc2)CC1 | inactive | –
O=C1CC(c2ccco2)CC2=C1C(c1ccccc1)n1nc(C(F)(F)F)nc1N2 (configuration not stated) | inconclusive: 10.7% | –
Cc1nnc2ccc(-c3ccc(NS(=O)(=O)c4ccccc4F)cc3)nn12 | inconclusive: -6.9% | –
N/C(=N\OC(=O)c1ccccc1F)c1ccc([N+](=O)[O-])cc1 | inconclusive: 6.32% | –
CCOC(=O)N1CCN(C(=O)C(=O)NN)CC1 | inactive | –
CC1(C)C(=O)Nc2ccccc2N1C(=O)CSc1nc(-c2ccccc2)cs1 | – | inconclusive: 20.6 µM [rising, partial curve, poor fit]
O=C(CSc1nnc2n(C3CCCC3)c(=O)c3ccccc3n12)N1CCCCCC1 | inconclusive: 17.9% | –
CNC(=S)N/N=C(\C)c1ccc(N2CCOCC2)cc1 | – | inconclusive: 23.1 µM [cytotoxic, partial curve]
Cc1nn(-c2ccc(C(=O)O)cc2)c(N)c1-c1ccccc1 | – | inconclusive: 35.5 µM [rising, partial curve]
CC(C)CC(NC(=O)C1CCC(=O)N1)C(=O)NC(CC(C)C)C(=O)N1CCCC1C(N)=O (configuration not stated) | inactive | –
CCCc1cc(=O)n2[nH]c(-c3ccccc3)cc2n1 | – | inconclusive: 4.61 µM [falling, single point]
O=C(OCc1nc2ccccc2s1)[C@@H]1CCCN1S(=O)(=O)c1ccccc1F | – | inconclusive: 9.2 µM [rising, partial curve, poor fit]
Cc1ccc(C)c(OCC(=O)N2CCc3ccccc3C2)c1 | – | inconclusive: 11.2 µM [falling, partial curve, poor fit]
N#C/C(=C\c1cccs1)C(=O)NCc1ccccc1 | inconclusive: 9.91% | –
Cc1cc(=O)oc(C)c1C(=O)NCc1ccco1 | inconclusive: 6.79% | –
CCOC(=O)c1cnc2c(C)cc(C)cc2c1NCCCN1CCOCC1 | inactive | –
CCOc1ccc(N)c(SSc2cc(OCC)ccc2N)c1 | – | inconclusive: 25.1 µM [cytotoxic, partial curve]

SMILES | activity change, negative = inhibition | Potency
CCn1c(SCc2ccc(F)cc2)nc2c(c1=O)SCC2 | inconclusive: -8.41% | –
C=CCNC(=O)C(C)N1C(=O)c2ccccc2C1=O (configuration not stated) | inconclusive: 0.635% | –
Cc1ccc(S(=O)(=O)N(C)C)cc1NC(=O)CSc1nncs1 | inactive | –
CC(=O)c1ccc(N2CCN(c3ncccn3)CC2)cc1 | inactive | –
O=C(O)c1cccc(NC2=C(N3CCOCC3)C(=O)c3ccccc3C2=O)c1 | – | inconclusive: 35.5 µM [rising, partial curve]
CC(C(=O)NC1CCCC1)N(C(=O)CS(=O)CC(=O)Nc1ccc(F)cc1)c1ccc2c(c1)OCCO2 (configuration not stated) | inactive | –
COc1ccccc1NC(=O)CSc1nnc(Cc2cccs2)n1C | – | inconclusive: 14.6 µM [falling, partial curve, poor fit]
COc1ccccc1/C=C/C=C1\Oc2c(ccc(O)c2CN2CCN(CCO)CC2)C1=O | – | inconclusive: 18.4 µM [falling, single point]
Cc1cccc2cn[nH]c12 | – | inconclusive: 35.5 µM [falling, partial curve, poor fit]
O=C(Nc1ccc(Oc2ccc(NC(=O)c3ccco3)c(NC(=O)c3ccco3)c2)cc1)c1ccco1 | inconclusive: 3.92% | –
CC(C)(C)C1CCc2c(sc(N)c2C(N)=O)C1 (configuration not stated) | inconclusive: -0.537% | –
Cc1snc(SCC(=O)c2ccc([N+](=O)[O-])cc2)c1C#N | inactive | –
CCOc1ccc(C(=O)NC(=S)Nc2ccccc2OC)cc1[N+](=O)[O-] | inconclusive: 4.25% | –
O=C(NCCc1c[nH]c2ccccc12)c1ccc(Cl)cc1 | inactive | –
COc1cc(-c2cc(-c3nnco3)c3ccccc3n2)cc(OC)c1OC | inactive | –
CCOC(=O)CSc1nnc(-c2ccccc2)c(=O)[nH]1 | – | inconclusive: 29.1 µM [falling, single point]
CC(Oc1ccc(F)cc1)C(=O)Nc1cc(C(F)(F)F)ccc1-n1cncn1 (configuration not stated) | inconclusive: 17.7% | –
CCOC(=O)CSc1nc(C)cc(C)c1C#N | – | inconclusive: 29.1 µM [rising, partial curve, poor fit]
CN(c1ccccc1)S(=O)(=O)c1ccc(C(=O)OCC(=O)N2CCOCC2)cc1 | inconclusive: 2.97% | –
COc1ccc(C(=S)Nc2ccc(N(C)C)cc2)cc1 | inconclusive: 15.5% | –
CC(C)Oc1ccc2c(c1)OC(c1ccccc1)(C(F)(F)F)NC2=O (configuration not stated) | inactive | –

SMILES | activity change, negative = inhibition | Potency
Cc1ccccc1C(=O)Nc1ccnn1C1CCN(Cc2ccccn2)CC1 | inactive | –
CC1CCCCC1n1c(=S)[nH]c2ccccc2c1=O (configuration not stated) | inconclusive: -24.7% | –
COc1ccc(C(=O)C2CCCN(C3Cc4ccccc4C3)C2)c(OC)c1 (configuration not stated) | inconclusive: -4.66% | –
Cn1c(C=O)c(-c2ccc3c(c2)OCCO3)c2ccccc21 | inconclusive: 5.35% | –
Cn1c(Cn2c(=O)sc3ccccc32)nnc1SCc1ccccc1F | inconclusive: 19.7% | –
Nc1nc(Cl)nc2c1ncn2[C@H]1C[C@H](O)[C@@H](CO)O1 | inconclusive: 7.37% | –
Cc1cccc(NC(=O)Nc2ccc(Cl)cc2)n1 | inconclusive: 7.88% | –
Cc1oc2cc(O)ccc2c(=O)c1-c1cnn(-c2ccccc2)c1 | inactive | –
CC(=O)Nc1cccc(Cn2cccn2)c1 | inactive | –
Cc1ccc(/C=C/S(=O)(=O)NCC(=O)OCC(=O)Nc2c(F)cccc2F)cc1 | inconclusive: -10.2% | –
S=C(Nc1ccccc1)Nc1cccc(Cl)c1Cl | inconclusive: 9.29% | –
Cc1nc2ncccn2c1-c1csc(Nc2ccc(O)cc2)n1 | – | inconclusive: 15.8 µM [falling, partial curve]
CCNC(=O)c1ccccc1NC(=O)c1cccc(S(=O)(=O)N2CCC(C)CC2)c1 | inconclusive: 0.368% | –
CC(C)C(NC(=O)c1ccc(C(C)(C)C)cc1)C(=O)OCC(=O)NC(=O)Cc1ccccc1 (configuration not stated) | inconclusive: -17.2% | –
COc1ccc(C(=O)NN2C(=S)N(c3ccc(OC)cc3)C(=O)C2CC(N)=O)cc1 (configuration not stated) | inconclusive: -0.0925% | –
COc1cc(NC(=O)CCc2ccccc2)c(C(=O)O)cc1OC | – | inconclusive: 35.5 µM [falling, partial curve, poor fit]
C=CCNC(=O)c1onc(CSc2cccc(OCC)c2)c1C(=O)O | inconclusive: -20.9% | –
C#CCNC(=O)C1=C[C@H](C2CCCCC2)C[C@H](OCCCCO)O1 | inconclusive: 4.67% | –
O=C(NCc1ccco1)Nc1cccc([N+](=O)[O-])c1 | inconclusive: 7.85% | –
